Reference: PMC11496845, “Preparation, characterization, and in vitro cytogenotoxic evaluation of a novel dimenhydrinate-β-cyclodextrin inclusion complex” (Biomolecules and Biomedicine, 2024)
Like-named read-outs stand apart in the source and are kept apart here.

How the values were obtained:
[1] = system: PBMCs; experiment: Alkaline comet assay, tail intensity; details: 3 h
Procedure: Blood was collected by venipuncture into heparinized vacutainers (BD Vacutainer Systems, Plymouth, UK), stored at room temperature, protected from light, and processed within 2 h. PBMCs were isolated by density gradient centrifugation (400 × g, 30 min) with separation medium (Histopaque® - 1077). After isolation, PBMCs were stained with Trypan blue and counted using a hemocytometer.
The comet assay is a sensitive technique for measuring DNA damage at the level of the individual eukaryotic cell. It is based upon the fact that denatured cleaved DNA fragments, or damaged DNA, migrate out of the cell at a different rate during electrophoresis than undamaged DNA [32]. Damaged DNA creates a “comet tail,” while the undamaged DNA remains within the cell membrane creating the “comet head.” The Comet assay is most commonly run under alkaline conditions to detect single and double-stranded DNA breaks. […]
Prior to the fluorescent microscope analysis (U-MNU2; Olympus BX51, Tokyo, Japan), slides were rehydrated and stained with DAPI (1 µg/mL). DNA damage in treated cells was evaluated using Comet Assay IV software (Instem LSS Ltd., Staffordshire, UK), by measuring tail intensity (TI%), the percent of DNA in the tail of comets. For each concentration, as well as for positive and negative controls, at least 200 comets were analyzed. […]

[2] = DMH with β-CD
[3] = cited from earlier work
[4] = system: rat primary hepatocytes; details: cited from earlier work

CN(C)CCOC(c1ccccc1)c1ccccc1.Cn1c(=O)c2[nH]c(Cl)nc2n(C)c1=O [DMH, 2-benzhydryloxy-N,N-dimethylethanamine; 8-chloro-1,3-dimethyl-7H-purine-2,6-dione]
Genotoxic effects in alkaline comet assay [1]: did not show genotoxic effects | Ks, stability constant [2]: 171.10 M⁻¹ | Ks, stability constant ([2]; Equation (1)): 171.10 M∘1 | Plasma concentration considered toxic [3]: 600 ng/mL | Plasma concentration ([3]; dose of 25 mg): 14.5 ng/mL | Peak plasma concentration (Cmax) ([3]; oral administration of 50 mg): 72.6 ng/mL | DNA strand breaks [4]: did not cause DNA strand breaks
